Data as given in PubChem BioAssay AID1259308 (NCATS, 2017).

- Purpose: 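Candidate targets for better recombinant protein yield in mammalian cells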 (primary screen)
- Cells: human HEK293 embryonic kidney cells stably expressing firefly luciferase (HEK-CMV-Luc2-Hygro)
- Knock-down reagent: single siRNA against human genes, 0.8 pmol siRNA per well
- Duration: 72 h
- Measured: 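Reporter luminescence and viable-cell signal on separate replicate plates, given as percent of non-targeting control and median/MAD z-scores, plus per-cell luciferase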
- Reading the numbers: total luciferase, z-score and total luciferase, % of control: higher = more reporter protein produced
- Active means: 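Active when the median/MAD z-score for overall luciferase is greater than 3; a gene was taken forward for validation with new siRNAs if at least two of its three siRNAs passed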
- Meaning of the calls: active = raised luciferase; inactive = no rise
The deposit covers about 59,000 reagents; below is an unselected part. Of all reagents, about 1,510 (2.6%) got an active call. 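Calls use total luciferase alone and ignore viability, so some active siRNAs may act by altering cell number.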 The numbers tell different reagents against one gene apart. Further read-outs or replicates are left out here.

target | reagent no. | total luciferase, z-score | total luciferase, % of control | call
NHSL3 | 1 | 1.16 | 105 | inactive
NHSL3 | 2 | -0.465 | 72.6 | inactive
NHSL3 | 3 | -1.17 | 58.7 | inactive
DPM2 | 1 | 0.193 | 85.7 | inactive
DPM2 | 2 | -0.725 | 67.5 | inactive
DPM2 | 3 | 0.793 | 97.7 | inactive
FAM124B | 1 | -0.462 | 72.7 | inactive
FAM124B | 2 | -0.642 | 69.1 | inactive
FAM124B | 3 | 0.209 | 86.1 | inactive
FNTA | 1 | 0.396 | 89.8 | inactive
FNTA | 2 | 0.881 | 99.4 | inactive
FNTA | 3 | 1.89 | 119 | inactive
CLEC16A | 1 | -1.41 | 53.9 | inactive
CLEC16A | 2 | -1.23 | 57.4 | inactive
CLEC16A | 3 | 2.53 | 132 | inactive
EIF1AX | 1 | -2.87 | 24.8 | inactive
EIF1AX | 2 | -1.04 | 61.3 | inactive
EIF1AX | 3 | -1.73 | 47.5 | inactive
NAA15 | 1 | 1.79 | 117 | inactive
NAA15 | 2 | -0.922 | 63.6 | inactive
NAA15 | 3 | -2.44 | 33.4 | inactive
SEL1L2 | 1 | -1.88 | 44.5 | inactive
SEL1L2 | 2 | 0.699 | 95.8 | inactive
SEL1L2 | 3 | 0.434 | 90.5 | inactive
SP2 | 1 | -0.647 | 69 | inactive
SP2 | 2 | -0.0426 | 81 | inactive
SP2 | 3 | 0.623 | 94.3 | inactive
NT5C3B | 1 | 0.359 | 89 | inactive
NT5C3B | 2 | -0.249 | 76.9 | inactive
NT5C3B | 3 | 1.41 | 110 | inactive
ZNF140 | 1 | 1.57 | 113 | inactive
ZNF140 | 2 | 3.98 | 161 | active
ZNF140 | 3 | -0.538 | 71.2 | inactive
POLL | 1 | -0.199 | 77.9 | inactive
POLL | 2 | 1.54 | 112 | inactive
POLL | 3 | -1.04 | 61.1 | inactive
RBCK1 | 1 | 1.88 | 119 | inactive
RBCK1 | 2 | -0.452 | 72.9 | inactive
RBCK1 | 3 | 2.12 | 124 | inactive

3 entries from above, limited to “total luciferase, z-score”:
ZNF140 #1	1.57
ZNF140 #2	3.98
ZNF140 #3	-0.538
